Measurements reported in PubChem BioAssay AID1259308 (NCATS, 2017)

Purpose: 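Genes whose loss raises luciferase production in HEK293 cells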 (primary screen)
System: human HEK293 embryonic kidney cells stably expressing firefly luciferase (HEK-CMV-Luc2-Hygro)
Reagent: single siRNA against human genes, 0.8 pmol siRNA per well
Duration: 72 h
Read-out: 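Reporter luminescence and viable-cell signal on separate replicate plates, given as percent of non-targeting control and median/MAD z-scores, plus per-cell luciferase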
Scale: total luciferase, z-score: higher = more reporter protein produced
Active means: 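Active when the median/MAD z-score for overall luciferase is greater than 3; a gene was taken forward for validation with new siRNAs if at least two of its three siRNAs passed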
Meaning of the calls: active = raised luciferase; inactive = no rise
The whole screen tested about 59,000 reagents; shown is a part drawn at random. About 1,510 of them (2.6%) count as active. 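Calls use total luciferase alone and ignore viability, so some active siRNAs may act by altering cell number.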 The numbers tell different reagents against one gene apart. Further read-outs or replicates are left out here. Reagent sequences are not shown.

| gene symbol | reagent | total luciferase, z-score | activity call |
| --- | --- | --- | --- |
| MMP9 (matrix metallopeptidase 9) | 1 | 0.0525 | inactive |
| MMP9 (matrix metallopeptidase 9) | 2 | 0.647 | inactive |
| MMP9 (matrix metallopeptidase 9) | 3 | -0.555 | inactive |
| MYO1C (myosin IC) | 1 | 0.0376 | inactive |
| MYO1C (myosin IC) | 2 | 0.0731 | inactive |
| MYO1C (myosin IC) | 3 | -0.159 | inactive |
| PRG4 (proteoglycan 4) | 1 | -0.38 | inactive |
| PRG4 (proteoglycan 4) | 2 | 1.22 | inactive |
| PRG4 (proteoglycan 4) | 3 | -0.939 | inactive |
| AQP1 (aquaporin 1 (Colton blood group)) | 1 | -0.633 | inactive |
| AQP1 (aquaporin 1 (Colton blood group)) | 2 | 0.344 | inactive |
| AQP1 (aquaporin 1 (Colton blood group)) | 3 | 2.14 | inactive |
| SCMH1 (Scm polycomb group protein homolog 1) | 1 | 1.61 | inactive |
| SCMH1 (Scm polycomb group protein homolog 1) | 2 | 1.76 | inactive |
| SCMH1 (Scm polycomb group protein homolog 1) | 3 | -0.36 | inactive |

Next part; the last 2 above are carried over.
| gene symbol | reagent | total luciferase, z-score | activity call |
| --- | --- | --- | --- |
| SCMH1 (Scm polycomb group protein homolog 1) | 2 | 1.76 | inactive |
| SCMH1 (Scm polycomb group protein homolog 1) | 3 | -0.36 | inactive |
| SOX10 (SRY-box transcription factor 10) | 1 | 0.45 | inactive |
| SOX10 (SRY-box transcription factor 10) | 2 | -1.53 | inactive |
| SOX10 (SRY-box transcription factor 10) | 3 | 0.315 | inactive |
| ADAMTS20 (ADAM metallopeptidase with thrombospondin type 1 motif 20) | 1 | -0.399 | inactive |
| ADAMTS20 (ADAM metallopeptidase with thrombospondin type 1 motif 20) | 2 | -0.876 | inactive |
| ADAMTS20 (ADAM metallopeptidase with thrombospondin type 1 motif 20) | 3 | 0.684 | inactive |
| CENPC (centromere protein C) | 1 | -0.907 | inactive |
| CENPC (centromere protein C) | 2 | -0.789 | inactive |
| CENPC (centromere protein C) | 3 | 0.378 | inactive |
